Assay results as given in publication PMC7827699.
No constants are given. Whether binding was seen depends on the method and setting. Binding seen in cells or lysates may run through a third protein. Some entries that bind do so weakly or less than the wild type.

Protein sequences, listed by entry. Tags and fused reporters are not part of them. Lines headed by an entry give the natural chain unless they say otherwise; changes in a name come on top. Chains listed by the source or under a name are the forms on record and can include a tag or linker. Residues count along the entry.
UniProt P61960: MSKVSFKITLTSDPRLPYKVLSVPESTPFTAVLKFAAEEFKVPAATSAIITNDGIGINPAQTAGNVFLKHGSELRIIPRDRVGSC
StrepII-tagged UFM1 ΔVGSC (inactive mutant lacking the 4 C-terminal residues): residues 1-81 of P61960
UniProt Q9GZZ9: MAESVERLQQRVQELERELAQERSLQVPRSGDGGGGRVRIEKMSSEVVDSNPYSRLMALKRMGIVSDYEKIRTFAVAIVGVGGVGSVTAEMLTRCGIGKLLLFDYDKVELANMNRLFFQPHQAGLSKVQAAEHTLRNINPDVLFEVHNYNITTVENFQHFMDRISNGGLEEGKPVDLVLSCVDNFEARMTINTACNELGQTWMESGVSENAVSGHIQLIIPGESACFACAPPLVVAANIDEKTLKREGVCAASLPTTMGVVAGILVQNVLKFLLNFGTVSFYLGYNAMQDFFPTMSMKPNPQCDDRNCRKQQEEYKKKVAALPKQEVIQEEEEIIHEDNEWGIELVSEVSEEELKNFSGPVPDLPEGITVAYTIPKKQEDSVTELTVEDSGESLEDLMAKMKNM

How the values were obtained:
[1] = molecular target: StrepII-tagged UFM1 ΔVGSC (inactive mutant lacking the 4 C-terminal residues) (human) (UniProt P61960); assay: co-IP
[2] = molecular target: N-terminally StrepII-tagged UFM1 (ubiquitin-fold modifier 1), wildtype (human) (UniProt P61960); assay: co-IP

UBA5, the E1 enzyme of UFM1 (from UniProt Q9GZZ9 1-404)
binding [1]: no binding
binding [2]: binds
